Measured values taken from the supplement of paper PMC10849652.
This is one part of the list.

Sequences of proteins named here, by UniProt entry; tags and fusion partners are left off. A change or cut given only in a name is not applied to a line headed by its entry.
UniProt O94762: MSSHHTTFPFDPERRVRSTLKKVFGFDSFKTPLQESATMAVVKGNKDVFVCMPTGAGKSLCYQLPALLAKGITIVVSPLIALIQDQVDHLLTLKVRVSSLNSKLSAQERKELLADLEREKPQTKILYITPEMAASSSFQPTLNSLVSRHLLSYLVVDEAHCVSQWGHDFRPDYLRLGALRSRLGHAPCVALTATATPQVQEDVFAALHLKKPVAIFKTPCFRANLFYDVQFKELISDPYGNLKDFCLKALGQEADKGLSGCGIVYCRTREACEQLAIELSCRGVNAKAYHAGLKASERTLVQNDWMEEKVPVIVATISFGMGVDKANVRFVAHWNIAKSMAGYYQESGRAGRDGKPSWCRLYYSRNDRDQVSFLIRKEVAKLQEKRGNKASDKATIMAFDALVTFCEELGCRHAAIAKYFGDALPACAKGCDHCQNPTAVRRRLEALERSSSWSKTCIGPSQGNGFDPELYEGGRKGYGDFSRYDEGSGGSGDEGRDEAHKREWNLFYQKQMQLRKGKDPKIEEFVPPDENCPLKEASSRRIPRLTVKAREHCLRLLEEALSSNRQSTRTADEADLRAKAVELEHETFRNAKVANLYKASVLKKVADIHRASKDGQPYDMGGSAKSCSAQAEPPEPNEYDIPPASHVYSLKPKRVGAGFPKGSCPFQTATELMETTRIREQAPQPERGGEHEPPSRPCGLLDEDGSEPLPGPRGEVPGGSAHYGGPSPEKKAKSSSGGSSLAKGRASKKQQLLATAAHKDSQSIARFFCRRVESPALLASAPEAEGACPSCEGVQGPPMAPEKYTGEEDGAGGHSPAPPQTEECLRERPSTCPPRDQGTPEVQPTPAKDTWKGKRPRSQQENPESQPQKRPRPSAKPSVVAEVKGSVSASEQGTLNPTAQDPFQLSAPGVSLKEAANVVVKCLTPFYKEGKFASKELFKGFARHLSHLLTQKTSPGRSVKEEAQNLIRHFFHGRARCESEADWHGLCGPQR
UniProt Q8WU17: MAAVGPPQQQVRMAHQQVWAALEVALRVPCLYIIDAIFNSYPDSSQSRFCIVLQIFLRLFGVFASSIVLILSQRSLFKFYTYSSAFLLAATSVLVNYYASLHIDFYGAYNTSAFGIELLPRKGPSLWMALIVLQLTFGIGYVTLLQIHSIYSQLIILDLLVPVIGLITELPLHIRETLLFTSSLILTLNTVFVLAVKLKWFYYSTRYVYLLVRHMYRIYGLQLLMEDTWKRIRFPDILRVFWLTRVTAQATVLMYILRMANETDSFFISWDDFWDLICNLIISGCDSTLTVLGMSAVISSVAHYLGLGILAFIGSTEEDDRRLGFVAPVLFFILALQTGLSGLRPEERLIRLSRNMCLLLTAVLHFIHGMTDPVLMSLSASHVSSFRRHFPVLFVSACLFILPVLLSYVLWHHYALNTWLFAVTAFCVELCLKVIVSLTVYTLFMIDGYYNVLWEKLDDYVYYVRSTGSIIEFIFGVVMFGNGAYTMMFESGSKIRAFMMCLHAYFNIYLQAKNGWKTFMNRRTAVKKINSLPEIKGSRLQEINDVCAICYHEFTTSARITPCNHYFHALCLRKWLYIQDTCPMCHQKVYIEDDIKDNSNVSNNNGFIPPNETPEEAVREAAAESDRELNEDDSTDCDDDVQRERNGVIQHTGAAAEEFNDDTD

Columns and labels:
Test in all cases: log2 fold change, soluble protein after heating vs DMSO (PISA); higher = thermal stabilisation; K562 cells, 10 uM, 30 min; active = over 0.2 and 3.5 SD of the protein, either way, in both replicates (recomputed)
[1] = compound: CCn1cc(-c2ccnc3[nH]c(-c4cccc(CN(C)C)c4)cc23)c(-c2ccc(NC(=O)N(C)C)cc2)n1
Outline: (§1)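 K562 cells at 2×10^6 cells/mL were given 10 μM compound for 30 min. Aliquots then went through 3 min of heating across 48°C-58°C, were pooled, and were extracted in PBS with 0.5% NP-40 at 4°C, and the supernatant after 21,000xg for 90 min was quantified by TMTpro 16plex LC-MS/MS with channel sums equalised. Thermal stability relative to control samples, from duplicates, is given as log2 fold change.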

[2] = compound: CN(C)CC(=O)Nc1ccc2[nH]c(=O)c3ccccc3c2c1
Outline: as §1

[3] = compound: CN1C2=C(C3=C1C(=O)N(N=C3)CC4=CC(=CC=C4)N)SC(=C2)S(=O)C
Outline: as §1

[4] = compound: CN1CCC(CNc2ccc3ncc(-c4cccc(OC(F)(F)F)c4)n3n2)CC1
Outline: as §1

volasertib = compound: CC[C@@H]1C(=O)N(C)c2cnc(Nc3ccc(C(=O)N[C@H]4CC[C@H](N5CCN(CC6CC6)CC5)CC4)cc3OC)nc2N1C(C)C [volasertib]
Outline: as §1

[5] = compound: CC[C@H](C)N1C=C(C2=C(C=C(C=C21)C3=CN=C(C=C3)N4CCNCC4)C(=O)NCC5=C(C=C(NC5=O)C)C)C
Outline: as §1

epoxomicin = compound: CC[C@H](C)[C@@H](C(=O)N[C@@H]([C@@H](C)O)C(=O)N[C@@H](CC(C)C)C(=O)[C@]1(CO1)C)NC(=O)[C@H]([C@@H](C)CC)N(C)C(=O)C [epoxomicin]
Outline: as §1

[6] = compound: CC[C@@H]1C(=O)N(C)c2cnc(Nc3ccc(C(=O)NC4CCN(C)CC4)cc3OC)nc2N1C1CCCC1
Outline: as §1

[7] = compound: CCn1c(C(=O)N(C2CC2)C2CC2)cc2c3c(ncn3C)c(Nc3cc(C)n(C)n3)nc21
Outline: as §1

rosiglitazone = compound: CN(CCOC1=CC=C(C=C1)C[C@H]2C(=O)NC(=O)S2)C3=CC=CC=N3 (racemic) [rosiglitazone]
Outline: as §1

Measured: log2 fold change

RECQL5 (UniProt O94762)
inactive: [1] 0.022 | [2] -0.026 | [3] 0.202 | [4] 0.104

RNF167 (UniProt Q9H6Y7)
inactive: volasertib 0.003 | [5] -0.043 | epoxomicin 0.039 | [1] 0.057 | [2] -0.008 | [3] 0.05 | [4] -0.097

RNF139 (UniProt Q8WU17)
inactive: [6] -0.073 | [5] -0.084 | epoxomicin -0.027 | [7] -0.016 | [1] -0.2 | [2] -0.012 | rosiglitazone 0.052 | [4] 0.008
